Source: article PMC10460399 (Nature Communications, 2023)
No constants are given. Whether binding was seen depends on the method and setting. Some binding calls cover weakened binding; strength is not graded here.

Amino acid sequences for entries named in this document (tags omitted). A change or cut given only in a name is not applied to a line headed by its entry.
UniProt A1ZAW0: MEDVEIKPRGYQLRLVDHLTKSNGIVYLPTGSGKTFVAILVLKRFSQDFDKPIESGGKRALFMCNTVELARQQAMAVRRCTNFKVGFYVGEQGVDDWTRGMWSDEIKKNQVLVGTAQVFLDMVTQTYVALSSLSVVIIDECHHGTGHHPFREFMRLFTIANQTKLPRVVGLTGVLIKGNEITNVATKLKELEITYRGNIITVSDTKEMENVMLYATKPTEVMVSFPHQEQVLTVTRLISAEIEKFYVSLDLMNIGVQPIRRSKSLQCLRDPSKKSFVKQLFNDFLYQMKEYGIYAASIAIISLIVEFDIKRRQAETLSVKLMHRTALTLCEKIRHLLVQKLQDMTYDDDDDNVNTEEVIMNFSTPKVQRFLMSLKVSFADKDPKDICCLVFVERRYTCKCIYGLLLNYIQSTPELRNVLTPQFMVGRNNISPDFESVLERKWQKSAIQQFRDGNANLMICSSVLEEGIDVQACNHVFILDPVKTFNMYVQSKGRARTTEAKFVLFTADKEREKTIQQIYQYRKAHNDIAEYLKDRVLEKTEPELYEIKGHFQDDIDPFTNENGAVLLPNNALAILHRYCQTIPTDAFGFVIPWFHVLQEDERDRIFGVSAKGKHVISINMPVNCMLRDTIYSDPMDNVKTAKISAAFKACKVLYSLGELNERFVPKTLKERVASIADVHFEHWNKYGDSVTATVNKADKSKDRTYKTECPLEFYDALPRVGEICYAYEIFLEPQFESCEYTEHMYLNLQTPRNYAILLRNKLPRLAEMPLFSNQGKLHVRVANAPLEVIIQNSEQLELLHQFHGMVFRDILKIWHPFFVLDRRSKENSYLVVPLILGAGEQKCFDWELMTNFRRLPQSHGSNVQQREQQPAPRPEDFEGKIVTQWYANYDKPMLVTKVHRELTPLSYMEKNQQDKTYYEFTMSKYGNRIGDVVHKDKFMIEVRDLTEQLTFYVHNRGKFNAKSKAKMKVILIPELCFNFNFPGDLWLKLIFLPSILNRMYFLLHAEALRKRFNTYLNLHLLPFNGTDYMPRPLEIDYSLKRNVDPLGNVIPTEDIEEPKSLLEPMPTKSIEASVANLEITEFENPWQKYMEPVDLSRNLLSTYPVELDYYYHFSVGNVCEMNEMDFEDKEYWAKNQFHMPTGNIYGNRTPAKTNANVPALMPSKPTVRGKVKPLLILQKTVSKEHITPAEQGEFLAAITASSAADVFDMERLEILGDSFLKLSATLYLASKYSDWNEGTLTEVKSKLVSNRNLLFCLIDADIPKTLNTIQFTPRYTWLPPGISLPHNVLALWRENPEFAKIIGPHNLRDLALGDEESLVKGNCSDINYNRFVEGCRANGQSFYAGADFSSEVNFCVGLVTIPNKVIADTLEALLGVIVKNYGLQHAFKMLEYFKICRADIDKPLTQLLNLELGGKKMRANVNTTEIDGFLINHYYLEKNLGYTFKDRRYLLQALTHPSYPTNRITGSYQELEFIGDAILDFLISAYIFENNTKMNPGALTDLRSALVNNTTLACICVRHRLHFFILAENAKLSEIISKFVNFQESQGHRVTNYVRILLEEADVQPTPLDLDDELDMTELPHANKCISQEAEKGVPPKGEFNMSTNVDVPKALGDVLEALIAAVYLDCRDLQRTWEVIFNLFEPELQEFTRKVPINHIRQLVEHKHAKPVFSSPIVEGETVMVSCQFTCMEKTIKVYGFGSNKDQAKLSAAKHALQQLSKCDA

Assays:
[1] = molecular target: DmDcr-2 mutant (D1217N/D1476N, DmDcr-2^DDNN) (Drosophila melanogaster) (UniProt A1ZAW0); test: cryo-EM structure; DmDcr-2^DDNN/R2D2/Loqs-PD complex with 50-bp dsRNA 1:1, 25 °C for 2 h, diluted to 1 uM in SEC buffer with 5 mM ATP and 5 mM MgCl2; both purified
[2] = molecular target: DmDcr-2 mutant (D1217N/D1476N, DmDcr-2^DDNN) (Drosophila melanogaster) (UniProt A1ZAW0); test: cryo-EM structure; DmDcr-2^DDNN/R2D2/Loqs-PD complex with 19-bp dsRNA 1:1, 25 °C for 2 h, diluted to 1 uM in SEC buffer with 5 mM ATP and 5 mM MgCl2; both purified
[3] = molecular target: DmDcr-2, wild type, full length (Drosophila melanogaster) (UniProt A1ZAW0); test: co-purification (Ni-NTA, anion exchange, 2nd Ni-NTA, SEC); DmDcr-2 and R2D2 co-expressed in sf9 cells by baculovirus; lysate in 150 mM NaCl, 20 mM Tris-HCl pH 8.0, 10% glycerol, 20 mM imidazole; last step Superdex 200 10/300 Increase

- binding [1]: binds
- binding [2]: binds
- binding [3]: binds
B1: R2D2, wild type, full length (protein, UniProt Q9VLW8 1-311)
chain: MDNKSAVSALQEFCARTQINLPTYSFIPGEDGGYVCKVELLEIEALGNGRSKRDAKHLAASNILRKIQLLPGIHGLMKDSTVGDLDEELTNLNRDMVKELRDYCVRREMPLPCIEVVQQSGTPSAPEFVACCSVASIVRYGKSDKKKDARQRAAIEMLALISSNSDNLRPDQMQVASTSKLKVVDMEESMEELEALRRKKFTTYWELKEAGSVDHTGMRLCDRHNYFKNFYPTLKKEAIEAINSDEYESSKDKAMDVMSSLKITPKISEVESSSLVPLLSVELNCAFDVVLMAKETDIYDHIIDYFRTMLI
